Consider 106 sequences from PubChem BioAssay AID1508600 (Functional Genomics Laboratory (NCATS/FGL), 2020).

Out of some 53,000 sequences screened, about 3,700 (7%) were called active.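 The calls were made as follows: active = gene knockdowns whose robust z-score for IL-1 alpha signal is at least 2 or at most -2, so actives lie on both sides; inactive = the rest.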 The list shows a part of the results.

A short description of this assay: Components of the Cytosolic LPS Sensing Pathway: Gene Identification via Genome-wide siRNA Screen.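 Also: robust z of the log signal after scaling to non-targeting control siRNA wells of the plate.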 The note with it: RAW264.7 macrophages, IL-1a HTRF, actives lie on both sides, screened at 100 nM (by protocol), cells primed 5 h with Pam3CSK4 first. The essentials:
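RAW264.7 mouse macrophages reverse-transfected with single siRNAs (100 nM final) for 48h, primed with Pam3CSK4 for 5 hours, then transfected with LipidA for 24 hour. Supernatant IL-1a read by HTRF; values normalized to negative-control median, log-transformed robust z-scores.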
On to GGGAUAAUGCAUGUGAAAATT against Pdk3, for which the z-score is inactive: -0.292.
Consider GGCUGAGUGAAUUGGGAAUTT against Olfr419, for which the z-score was inactive: 1.28.
To CCAAUAGAGAUGCAAAUCATT against Nek6 belongs inactive: 0.0788.
Turning to GGCUACAAGAGCUUGCUCUTT against Dna2, the z-score is inactive: 0.453.
With GGAGCUCUGUGAGAACGAUTT against Kmt5b, the z-score is inactive: 0.672.
Turning to CGAACAUUCGGAAAUGUCATT against Ifnb1, the z-score is inactive: 0.259.
For the sequence GUUUACCUCAGCUGUUUUCTT against Olfr495, the z-score is inactive: 0.157.
Take GGACAUGAGUGUCAAUUCUTT against Fam131b: the z-score is inactive: -1.02.
Turning to GCUCCUCCAUCAGUUAGAUTT against Ube2v2, the z-score was inactive: -1.06.
GGAUUCAUAAACUUGUGUGTT against Atic: the z-score is inactive: 0.274.
For GGGUGUCUUACACCUUACATT against Sertad2, the z-score was inactive: -1.48.
Regarding GCGAUGAUAAGUGCCUGGUTT against Stk31, the z-score was inactive: -1.58.
Next, CGAAGCACAUAUCUUUGAUTT against Zfp41: inactive: 0.444; GCACACUACAACGUAUCACTT against Stpg2: inactive: 1.31.
Turning to GGUCUACGUAGAGGAGCUGTT against Mrpl28, the z-score was inactive: 1.04.
With CCUGUAACCAGUAUAAAUATT against Fmo3, the z-score was inactive: -0.132.
Regarding “GGGCAAAUGAAAACAAGAATT against 4933434M16Rik”, the z-score is inactive: -1.11.
Regarding “GGAAACCAUUGGUUUAUAATT against 9230109A22Rik”, the z-score was inactive: -0.737.
GGGUGACCUAAUCCAGUGUTT against Neurog3: the z-score is active: 2.5.
Regarding CGAUACAGGACCGAAGGAGTT against Fhad1, the z-score was inactive: -0.196.
With GCUCAUCUCGAUUUGACUGTT against Cln3, the z-score was inactive: -1.67.
GGAUAGCUUCCUUCAGGUGTT against Zscan22: the z-score is inactive: -0.817.
With GGAAGAGGAGGGAAGGAUCTT against Robo3, the z-score was inactive: 0.378.
Regarding GGAUGAAGUUUACCACCUGTT against Ptgir, the z-score is inactive: 0.158.
Regarding “ACCAACCUCAGUCCUUUUUTT against A530095I07Rik”, the z-score was inactive: -1.5.
As for CCCUUAAAUCUGGAAGCAGTT against Mex3a, the z-score is inactive: -1.23.
GGUUUUCACCAAUCGGAUGTT against H2-T24: the z-score is inactive: 0.835.
Next, GGCCUUGGCAAUUAUUUGUTT against Syap1: inactive: -0.0759; GGGAUAUUGGAGCAAAAAATT against Sbno1: inactive: -1.23.
On to GGCAGAAGUUACAAAAGAATT against Selenos, for which the z-score is inactive: -1.07.
As for GCGCGAGGAAUUGAAACUCTT against Gna15, the z-score is inactive: 1.18.
As to GGAUUUUGACAGUCUGUGUTT against Endou, the z-score is inactive: -0.438.
For the sequence CCUCACGGCCUUAUAUCUCTT against Fmod, the z-score was inactive: -1.8.
As for “GGACUUGAACUGAAAAGUUTT against D830013H23Rik”, the z-score was inactive: 1.01.
Take GGACUGAAACUAGGUAGGGTT against Dact2: the z-score is inactive: 0.138.
Take GGCUUCAGUGAUGAAUGAATT against Tor1aip1: the z-score was inactive: -0.594.
As for GGCGAGUGUGCAGAAGUUUTT against Ifi44, the z-score is inactive: 1.43.
Turning to GCAAGAGACCUUGUUAUAGTT against Cttnbp2nl, the z-score was inactive: -0.426.
Consider GGAUGUGGAGAUGAAAGAGTT against Psmd3, for which the z-score is inactive: -1.52.
As to “GCCUAGGUGACCUAAACUATT against D830014E11Rik”, the z-score was inactive: 0.0483.
For the sequence GGUGGGAAGAGUUUCAUCATT against Tesk2, the z-score was inactive: 0.58.
As for GGAUGAUGCUCGUUCUCAGTT against Ankar, the z-score is inactive: -0.248.
Consider GGAGUUUCCCUCAAGAAAATT against Tgfbr3, for which the z-score is inactive: 0.478.
Regarding GGACAGGAAAAUACUCAGATT against Nat8f5, the z-score is inactive: 0.0278.
To CCCUAAAUUAGCACAGUUUTT against Them7 belongs inactive: 1.64; to “GCUCACAGCAGCAUUUUACTT against 1700034H15Rik”, active: -2.48.
Turning to CGCAAGGACCGAUCUGAUGTT against Rnps1, the z-score was active: -2.41.
On to GGAAGGUGACAAGCACACCTT against S100a6, for which the z-score is inactive: -1.08.
On to GGCAGCCAAAUAUGGUGCUTT against Eln, for which the z-score was inactive: 1.02.
GGAUUGCAUCUUCCUCGAATT against Olfr816: the z-score is active: -2.27.
Regarding GGUUGAAACUGCUCUCAAGTT against Prl2a1, the z-score is inactive: 1.77.
As for GGGUGCAUUUUAAAUACUATT against Spred2, the z-score is inactive: 0.73.
In the case of GGCCUUAUAACUCAUAUAUTT against Zfp846, the z-score is inactive: -1.86.
Next, GGGUGGUUGUAAAAAUUCUTT against Csnk2a2: inactive: 0.47; GCACUAUGGUCCAUAUUAUTT against Olfr154: inactive: -1.19.
Next, “GCUUCUAAAUUUGGUUCUGTT against 9830163H01Rik”: inactive: -0.389; GGGUUGGAAAGGUAUCUUATT against Timp4: inactive: -0.162.
As to GCGCAAGCCGUAUUCGAAGTT against Hoxc12, the z-score was active: 2.95.
As to GGAACAGGACAAUGACAGUTT against Gzme, the z-score is inactive: 1.43.
Turning to GGAAGAAAAGAAUUCUAUGTT against Cep68, the z-score is inactive: 0.493.
For the sequence GCUCUCCUGAAAUUAUGUATT against Get1, the z-score was inactive: -0.126.
Turning to CCUUAUCUGGAGUGCGAGATT against Gpr158, the z-score is inactive: 0.452.
Take CCUCUGUGAUUUCAUUCUUTT against Hhip: the z-score is inactive: -0.991.
With GGUCUGCAUUUGCUUUCCUTT against Olr1, the z-score is inactive: -1.4.
As to GGACAAUGGGCAAGUCACCTT against Rnase1, the z-score is inactive: -1.83.
Turning to GGUGAUGUGGGUCUUGUGATT against Zdhhc24, the z-score was inactive: -0.107.
Consider GCGUGCAGGGUUUUAGCUATT against Chmp2b, for which the z-score is inactive: -1.58.
As for GGAGUUUGAGAUCAUCUUCTT against Nxn, the z-score is inactive: 0.785.
As to GGGUUUCUGUAAUGACUAUTT against Zfp113, the z-score is inactive: -0.0803.
With CCGACCAAUGCAUUGACAATT against Lcn2, the z-score is inactive: -1.22.
For GGAAAUUCAAGUCAGUGUUTT against Pcyox1l, the z-score is inactive: -0.244.
GGAAAAAUGCGAACUUACUTT against Npr2: the z-score was inactive: 0.0359.
Take GGGUGUGCCUGAAUUACACTT against Ubn1: the z-score was inactive: -0.06.
Turning to GGGAAAUCAGAUAAAGCCCTT against Myl12a, the z-score was inactive: 0.874.
On to CCCUCAUGUUUAGCGAGCATT against Kcnj3, for which the z-score is inactive: 0.644.
For GGUACAAGCACUCCUGGAATT against Ccs, the z-score is inactive: 1.42.
Regarding GGAAAAGUGCAUUUUGCUGTT against Tex261, the z-score was inactive: -0.921.
Consider GCCACAACUCCAGAUGCCUTT against Olfr937, for which the z-score was active: -2.64.
Regarding GCAAAGAGAGUUCGAAUAATT against Klhl2, the z-score was inactive: 0.912.
With CCUUAAAAACUCGAGUAAATT against Gla, the z-score was inactive: 0.384.
Take GGUGAUGUAUAUUGAGUCUTT against Sdcbp2: the z-score was inactive: 0.149.
In the case of GGCCUACAGCUGGAAAGAATT against Chrm1, the z-score is inactive: 0.418.
In the case of GCAGAUCGAAUAAUAAGAGTT against Rbbp5, the z-score was inactive: -0.297.
As to GCUUCUAACUCUGUGAGGGTT against Defb29, the z-score was active: -2.8.
Turning to GGAUUUCCCAAGCCUUAUUTT against Sncaip, the z-score was inactive: -0.617.
Turning to GGACAUAAAAGACUUAAAGTT against Actr8, the z-score is inactive: -1.78.
Take GGGCAUUAGGAAUUAGGGCTT against Hoga1: the z-score is inactive: -0.336.
Take GGGUACAUUACACUCAGGATT against Atad3aos: the z-score is inactive: 0.0727.
With GCUCUGUGGACUUCUUGGATT against Znrf4, the z-score is inactive: -0.687.
On to GGUUUUGCAUCAACAGUGUTT against Msrb2, for which the z-score was inactive: 1.07.
Regarding CCAUUGCCUCACACGAGGATT against Lgals3bp, the z-score was inactive: -0.573.
For the sequence GCCACUUGUUAAUAAAGUGTT against Smim7, the z-score is inactive: -0.515.
In the case of GGUAUACUAGUUUGAAGAGTT against Rpl21, the z-score was inactive: 1.83.
Take GGUUCUGGAUUUCUGUUUUTT against Phf24: the z-score is inactive: -1.38.
On to GGAAAGAGAUUCUCUUCUATT against Nsun2, for which the z-score was inactive: -1.2.
For the sequence GCACCAAGGAGUUUCAUUUTT against Acadm, the z-score is inactive: -0.339.
Regarding CCCUCAAUGGCCUCAAACUTT against Elavl3, the z-score is inactive: -1.29.
Consider GGGUUUUGAACACUACAUCTT against Tsen34, for which the z-score is inactive: 1.28.
As for GGCAAAAAGGAAUUUCGGCTT against Padi2, the z-score is inactive: -0.288.
For GCCUUGACUGACAGACCCATT against Zfp114, the z-score was inactive: -1.88.
GGACUAGUCCUAAGAAGAGTT against Rbmxl2: the z-score was inactive: -1.27.
Consider GCUAGGAGAACCUACAUACTT against Adcy4, for which the z-score was inactive: -0.368.
As for GGUGCAGUUUAAGAGAGAATT against Tmcc3, the z-score was inactive: -0.224.
Take GGUACAAGACUGUCAUGUGTT against Mrpl3: the z-score was inactive: 0.356.
GGAGUGAUGAUCAAAAUCCTT against Duxbl1: the z-score was inactive: -0.381.
For GGACCAUACAAUGAUUCUATT against Zmat1, the z-score was inactive: -0.648.
